The target of experiment [1] is PPIA (mouse, endogenous in haematopoietic stem cells) (mouse (endogenous in primary haematopoietic stem cells)) (UniProt P17742). Nature of the experiment: proximity ligation; Duolink PLA on fixed, permeabilised primary mouse HSCs; mouse anti-cyclophilin A with rabbit anti-PABPC1, anti-DDX6 or anti-NPM1; single-antibody staining as control.
Experiment [2] addresses PPIA G104A mutant (IP–western in HeLa cells, Fig. 4f) (UniProt P62937). Nature of the experiment: co-IP; IP–western in HeLa cells with PPIA wild type or G104A mutant; partners detected by western blot. Background: A western blot detects proteins with antibodies after separation by electrophoresis.

The chains behind the UniProt entries cited, without tags or fusion partners. Where a name states a change or a piece, a line headed by the entry shows the natural chain unless it says otherwise. A line that says so, or that is headed by a name, gives the form on record, which may keep a tag or linker.
UniProt P17742: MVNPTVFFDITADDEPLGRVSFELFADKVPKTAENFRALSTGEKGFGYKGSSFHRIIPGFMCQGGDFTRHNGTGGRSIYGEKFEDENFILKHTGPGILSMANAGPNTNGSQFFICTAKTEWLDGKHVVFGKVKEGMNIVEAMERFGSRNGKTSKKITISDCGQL
PPIA G104A mutant (IP–western in HeLa cells, Fig. 4f) (P62937, form named): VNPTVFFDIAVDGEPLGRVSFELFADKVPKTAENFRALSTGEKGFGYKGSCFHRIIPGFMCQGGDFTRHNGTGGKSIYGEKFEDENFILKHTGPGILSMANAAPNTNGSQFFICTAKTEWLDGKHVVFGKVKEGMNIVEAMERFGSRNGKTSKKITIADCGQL
UniProt Q61937: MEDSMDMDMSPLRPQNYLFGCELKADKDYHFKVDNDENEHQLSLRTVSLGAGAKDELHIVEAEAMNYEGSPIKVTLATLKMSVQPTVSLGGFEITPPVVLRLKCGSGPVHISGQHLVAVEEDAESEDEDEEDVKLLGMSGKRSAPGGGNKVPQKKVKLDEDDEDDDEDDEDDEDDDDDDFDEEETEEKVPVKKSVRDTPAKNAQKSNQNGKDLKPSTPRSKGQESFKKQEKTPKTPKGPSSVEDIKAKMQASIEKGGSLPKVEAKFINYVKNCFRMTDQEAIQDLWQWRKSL
UniProt P29341: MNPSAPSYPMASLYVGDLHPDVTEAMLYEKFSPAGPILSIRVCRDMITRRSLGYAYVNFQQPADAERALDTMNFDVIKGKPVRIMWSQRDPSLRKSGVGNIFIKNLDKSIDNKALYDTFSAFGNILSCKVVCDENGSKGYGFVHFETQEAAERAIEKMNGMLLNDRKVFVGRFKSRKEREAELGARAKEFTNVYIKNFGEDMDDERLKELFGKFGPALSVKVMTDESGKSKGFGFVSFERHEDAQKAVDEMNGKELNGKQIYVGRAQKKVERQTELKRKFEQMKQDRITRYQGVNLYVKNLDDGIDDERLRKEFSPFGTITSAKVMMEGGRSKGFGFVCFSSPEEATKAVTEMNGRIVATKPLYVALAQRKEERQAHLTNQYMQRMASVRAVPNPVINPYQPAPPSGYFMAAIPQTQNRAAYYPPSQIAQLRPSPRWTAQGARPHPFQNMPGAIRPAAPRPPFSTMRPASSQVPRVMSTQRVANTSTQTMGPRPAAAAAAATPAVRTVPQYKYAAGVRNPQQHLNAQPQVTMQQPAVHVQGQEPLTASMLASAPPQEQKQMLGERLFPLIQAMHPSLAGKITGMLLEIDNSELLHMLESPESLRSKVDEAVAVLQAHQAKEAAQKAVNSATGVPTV
UniProt P06748: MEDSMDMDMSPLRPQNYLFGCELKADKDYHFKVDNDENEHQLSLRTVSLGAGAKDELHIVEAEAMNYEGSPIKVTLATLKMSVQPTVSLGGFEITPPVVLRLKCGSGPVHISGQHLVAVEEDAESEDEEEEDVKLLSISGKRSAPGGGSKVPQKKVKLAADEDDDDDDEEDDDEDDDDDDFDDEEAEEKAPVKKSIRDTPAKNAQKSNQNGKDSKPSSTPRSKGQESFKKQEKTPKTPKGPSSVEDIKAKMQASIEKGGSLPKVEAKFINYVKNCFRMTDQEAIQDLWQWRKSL
UniProt P11940: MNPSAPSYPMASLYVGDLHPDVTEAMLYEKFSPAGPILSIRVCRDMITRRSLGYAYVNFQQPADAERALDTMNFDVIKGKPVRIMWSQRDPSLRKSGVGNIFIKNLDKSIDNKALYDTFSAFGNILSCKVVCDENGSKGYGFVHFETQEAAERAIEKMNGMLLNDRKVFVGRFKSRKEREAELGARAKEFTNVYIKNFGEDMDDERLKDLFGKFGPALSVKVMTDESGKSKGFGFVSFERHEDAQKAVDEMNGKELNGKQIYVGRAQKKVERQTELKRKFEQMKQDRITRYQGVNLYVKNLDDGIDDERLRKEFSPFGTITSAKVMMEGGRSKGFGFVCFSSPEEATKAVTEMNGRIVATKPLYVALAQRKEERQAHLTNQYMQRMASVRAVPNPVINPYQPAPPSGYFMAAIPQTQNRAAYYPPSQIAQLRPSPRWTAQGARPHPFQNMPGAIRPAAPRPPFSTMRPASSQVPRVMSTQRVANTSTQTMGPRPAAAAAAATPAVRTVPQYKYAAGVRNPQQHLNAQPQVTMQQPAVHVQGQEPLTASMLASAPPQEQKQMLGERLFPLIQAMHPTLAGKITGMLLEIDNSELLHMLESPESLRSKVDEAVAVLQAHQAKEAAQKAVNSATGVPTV

Results are given in words; binding and its absence hold for the method and conditions named. Binding seen in cells or lysates may run through a third protein. Some entries that bind do so weakly or less than the wild type.

For “NPM1 (mouse, endogenous in haematopoietic stem cells) (from UniProt Q61937 1-292)”, the binding result in experiment [1] is “binds”.
Regarding “PABPC1 (mouse, endogenous in haematopoietic stem cells) (from UniProt P29341 1-636)”, the binding entry in experiment [1] is listed as “binds”.
“nucleophosmin 1 (from UniProt P06748 1-294)”: in experiment [2], the binding entry is “no binding”.
Consider “poly(A) binding protein cytoplasmic 1 (from UniProt P11940 1-636)”, for which, in experiment [2], the binding entry is “no binding”.

For the origin of these results see PMC11021199.
